Laboratory results published in article PMC11423089.
No constants are given. Whether binding was seen depends on the method and setting. Binding seen in cells or lysates may run through a third protein. A result given as binding can be weak or reduced; the word gives no strength. For some assays here: Sequences can lack the tags named with a protein.

The chains behind the UniProt entries cited, without tags or fusion partners. Where a name states a change or a piece, a line headed by the entry shows the natural chain unless it says otherwise.
UniProt Q96RR4: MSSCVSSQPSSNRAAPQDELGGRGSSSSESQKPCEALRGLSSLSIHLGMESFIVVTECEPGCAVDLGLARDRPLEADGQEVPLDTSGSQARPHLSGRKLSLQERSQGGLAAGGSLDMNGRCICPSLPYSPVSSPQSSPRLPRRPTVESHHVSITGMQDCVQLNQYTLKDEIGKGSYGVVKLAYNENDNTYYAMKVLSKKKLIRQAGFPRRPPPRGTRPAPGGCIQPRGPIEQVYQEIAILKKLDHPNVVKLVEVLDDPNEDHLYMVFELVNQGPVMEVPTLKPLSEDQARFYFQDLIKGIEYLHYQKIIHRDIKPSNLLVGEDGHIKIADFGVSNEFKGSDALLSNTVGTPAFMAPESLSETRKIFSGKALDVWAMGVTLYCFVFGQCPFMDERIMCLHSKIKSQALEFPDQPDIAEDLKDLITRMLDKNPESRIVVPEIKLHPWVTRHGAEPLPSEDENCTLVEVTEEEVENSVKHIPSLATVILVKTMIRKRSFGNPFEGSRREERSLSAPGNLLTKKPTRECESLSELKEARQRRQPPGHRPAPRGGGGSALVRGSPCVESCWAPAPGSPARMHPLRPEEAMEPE
UniProt P67775: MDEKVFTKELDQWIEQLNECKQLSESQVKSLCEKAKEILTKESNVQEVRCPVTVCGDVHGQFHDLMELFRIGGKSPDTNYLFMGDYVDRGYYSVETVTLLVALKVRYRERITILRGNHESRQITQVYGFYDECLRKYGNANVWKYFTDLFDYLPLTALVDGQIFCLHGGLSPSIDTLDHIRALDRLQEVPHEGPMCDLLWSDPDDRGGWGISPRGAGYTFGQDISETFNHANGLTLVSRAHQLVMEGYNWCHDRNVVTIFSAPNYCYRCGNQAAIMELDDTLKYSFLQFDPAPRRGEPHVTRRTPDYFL

Key:
[1] = target: calcium/calmodulin‐dependent protein kinase kinase 2 (CaMKK2) (human (endogenous in A549)) (UniProt Q96RR4); assay: co-IP; endogenous proteins from A549 lysates (lysis buffer A: 20 mM HEPES pH 7.5, 150 mM NaCl, 1 mM EDTA, 2 mM EGTA, 1% Triton X-100, 10% glycerol); 1 µg antibody against TIPRL, CaMKK2 or PP2Ac, or normal IgG, protein G sepharose, overnight at 4 °C; for CaMKK2 with PP2Ac the cells were transfected with siTIPRL or control siRNA, or overexpressed TIPRL
[2] = target: T1, His‐tagged TIPRL (pTIPRL‐His) in HEK293 cells (UniProt O75663); assay: co-IP; HEK293 cells co-transfected with pTIPRL-His and pHA-CaMKK2 or deletion mutants; precipitated using TIPRL
T1 sequence: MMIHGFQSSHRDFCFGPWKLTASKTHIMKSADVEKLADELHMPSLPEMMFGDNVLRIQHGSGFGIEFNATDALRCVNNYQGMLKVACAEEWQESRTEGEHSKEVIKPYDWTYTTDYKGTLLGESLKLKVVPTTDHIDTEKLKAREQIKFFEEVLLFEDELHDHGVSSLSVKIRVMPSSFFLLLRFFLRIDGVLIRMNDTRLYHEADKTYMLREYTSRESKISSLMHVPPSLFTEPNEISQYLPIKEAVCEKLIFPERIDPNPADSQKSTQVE

binding [1] | binding [2] | Substance
binds |  | catalytic subunit of protein phosphatase 2A (PP2Ac) (from UniProt P67775) (enzyme)
 | binds | hemagglutinin‐tagged CaMKK2 C‐terminal region (447–540) (domain or fragment)
